{
  "sequences": {"note": "Chains of the proteins cited; added tags and fusions are not shown. Residues count along the entry.", "UniProt Q13490, 266-352 limits assumed": "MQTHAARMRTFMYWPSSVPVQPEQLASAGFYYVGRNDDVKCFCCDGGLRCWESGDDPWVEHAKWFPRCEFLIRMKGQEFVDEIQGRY", "UniProt P98170, 253-347": "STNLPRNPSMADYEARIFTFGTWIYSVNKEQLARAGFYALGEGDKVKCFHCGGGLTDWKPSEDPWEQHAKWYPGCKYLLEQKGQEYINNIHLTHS", "UniProt Q13489, 245-337 limits assumed": "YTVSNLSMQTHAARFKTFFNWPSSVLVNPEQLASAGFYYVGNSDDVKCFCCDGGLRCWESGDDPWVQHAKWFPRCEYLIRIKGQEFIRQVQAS"},
  "source": "patent US11590197B2",
  "about": "“Agents targeting inhibitor of apoptosis proteins” (The Regents of the University of California, priority 2017, dated 2023)",
  "key": {"BIR3 domain of cIAP1": {"target": "BIR3 domain of cIAP1 (Homo sapiens, UniProt Q13490)", "settings": "read-out: IC50 (nM) by DELFIA assay cIAP1; Table 6"}, "BIR3 domain of XIAP [1]": {"target": "T1, BIR3 domain of XIAP (Homo sapiens, UniProt P98170)", "settings": "read-out: IC50 (nM) by DELFIA assay XIAP; Table 6"}, "[2]": {"system": "Bir3 domains of XIAP, cIAP1, and cIAP2", "experiment": "DELFIA displacement assay, Bir3 domains of XIAP, cIAP1 and cIAP2 taken together", "type": "binding", "settings": "ratio of the average IC50 values for cIAP1-BIR3 versus IC50 values for XIAP-BIR3"}, "BIR3 domain of cIAP2": {"target": "BIR3 domain of cIAP2 (Homo sapiens, UniProt Q13489)", "settings": "read-out: IC50 (nM) by DELFIA assay cIAP2; Table 6"}, "BIR3 domain of XIAP [3]": {"target": "T1, BIR3 domain of XIAP", "experiment": "Isothermal titration calorimetry (ITC) against the BIR3 domain of XIAP", "type": "binding", "set-up": "human BIR3 domain of XIAP fragment (residues 253-347) and an N-terminal His tag; His tag (N); made in house; host or cells: E. coli BL21(DE3) Gold"}, "[4]": {"settings": "figure legends and table titles"}},
  "note": "At least one peptide structure holds a part that was inferred or is arguable (an end, a ring closure or a residue). Where a SMILES comes first, the peptide text is derived from it. [ ]: non-standard residue; d: D form. pY = N[C@@H](Cc1ccc(OP(=O)(O)O)cc1)C(=O)O; Phe(4-F) = N[C@@H](Cc1ccc(F)cc1)C(=O)O",
  "data": [
    {"smiles": "C[C@H](N)C(=O)N[C@@H](Cc1ccc(OP(=O)(O)O)cc1)C(=O)N1CCC[C@H]1C(=O)N[C@@H](Cc1ccc(F)cc1)C(N)=O", "note": "[A(pY)P(4F-Phe), Ala-pTyr-Pro-(4F)Phe-NH2] (H-A[pY]P[Phe(4-F)]-NH2)", "values": [
      {"measurement": "IC50", "setting": "BIR3 domain of cIAP1", "value": 124, "unit": "nM"},
      {"measurement": "IC50", "setting": "BIR3 domain of XIAP [1]", "value": 40.1, "unit": "nM"},
      {"measurement": "Selectivity cIAP/XIAP", "setting": "[2]", "value": 3.3},
      {"measurement": "IC50", "setting": "BIR3 domain of cIAP2", "value": 143, "unit": "nM"},
      {"measurement": "LLE XIAP", "setting": "BIR3 domain of XIAP [3]; LLE defined as pKd(XIAP-BIR3) − cLogP", "value": 7.35},
      {"measurement": "ΔH (kcal/mol) XIAP", "setting": "BIR3 domain of XIAP [3]; Table 6, measured from a full curve titration", "value": -12.17, "unit": "kcal/mol"},
      {"measurement": "ΔG", "setting": "BIR3 domain of XIAP [3]; figure legend FIG. 6A", "value": -9.13, "unit": "kcal/mol"},
      {"measurement": "ΔH of binding", "setting": "BIR3 domain of XIAP [3]; [4]", "value": -12.17, "unit": "kcal/mol"},
      {"measurement": "−TΔS", "setting": "BIR3 domain of XIAP [3]; [4]", "value": 3.04, "unit": "kcal/mol"},
      {"measurement": "Kd", "setting": "BIR3 domain of XIAP [3]; read-out: Kd (nM) by ITC XIAP, Table 6", "value": 205, "unit": "nM"}
    ]}
  ]
}
